Molecular target: Trypanothione reductase (Trypanosoma cruzi, UniProt P28593)
Assay: Inhibition of Trypanosoma cruzi trypanothione reductase expressed in Escherichia coli BL21(DE3) assessed as reduction of oxidized trypanothione preincubated for 30 mins measured for 30 mins by spectrophotometric analysis

Protein sequences, listed by entry. Tags and fused reporters are not part of them. Lines headed by an entry give the natural chain unless they say otherwise; changes in a name come on top.
UniProt P28593: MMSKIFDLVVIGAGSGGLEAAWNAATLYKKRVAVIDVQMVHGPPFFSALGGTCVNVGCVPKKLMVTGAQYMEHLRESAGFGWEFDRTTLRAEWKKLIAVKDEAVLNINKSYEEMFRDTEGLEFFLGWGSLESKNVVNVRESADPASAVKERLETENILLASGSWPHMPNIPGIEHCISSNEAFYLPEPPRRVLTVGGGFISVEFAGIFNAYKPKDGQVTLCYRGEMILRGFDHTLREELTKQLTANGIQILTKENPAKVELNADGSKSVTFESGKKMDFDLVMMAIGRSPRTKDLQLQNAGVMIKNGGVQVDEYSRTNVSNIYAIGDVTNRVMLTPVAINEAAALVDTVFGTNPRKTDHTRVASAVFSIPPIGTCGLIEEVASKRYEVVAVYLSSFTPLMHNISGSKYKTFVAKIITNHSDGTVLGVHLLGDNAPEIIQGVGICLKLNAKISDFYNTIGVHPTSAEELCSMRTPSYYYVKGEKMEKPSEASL

IC50: 12.3 µM
Compound: CN(C)CCCN1c2ccccc2CCc2ccc(Cl)cc21 [CLOMIPRAMINE]

— ChEMBL document CHEMBL3102757, “Synthesis and evaluation of the antiparasitic activity of bis-(arylmethylidene) cycloalkanones” (Eur J Med Chem, 2014)
